Results taken from the supplement of paper PMC10849652.
Some of the results follow.

Protein sequences, listed by entry. Tags and fused reporters are not part of them. Lines headed by an entry give the natural chain unless they say otherwise; changes in a name come on top.
UniProt Q9H8K7: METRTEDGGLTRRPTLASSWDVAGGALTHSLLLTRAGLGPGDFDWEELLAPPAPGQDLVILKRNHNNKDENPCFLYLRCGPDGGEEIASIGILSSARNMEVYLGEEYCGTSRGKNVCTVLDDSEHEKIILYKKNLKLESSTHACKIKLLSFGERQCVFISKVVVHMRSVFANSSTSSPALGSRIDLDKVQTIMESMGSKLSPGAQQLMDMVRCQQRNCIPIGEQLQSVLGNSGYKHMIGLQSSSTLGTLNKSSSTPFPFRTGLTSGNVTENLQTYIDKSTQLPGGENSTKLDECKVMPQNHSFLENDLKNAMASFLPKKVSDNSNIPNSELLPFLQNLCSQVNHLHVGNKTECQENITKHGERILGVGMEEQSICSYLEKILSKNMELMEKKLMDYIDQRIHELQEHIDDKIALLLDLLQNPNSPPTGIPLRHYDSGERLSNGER
UniProt O14841: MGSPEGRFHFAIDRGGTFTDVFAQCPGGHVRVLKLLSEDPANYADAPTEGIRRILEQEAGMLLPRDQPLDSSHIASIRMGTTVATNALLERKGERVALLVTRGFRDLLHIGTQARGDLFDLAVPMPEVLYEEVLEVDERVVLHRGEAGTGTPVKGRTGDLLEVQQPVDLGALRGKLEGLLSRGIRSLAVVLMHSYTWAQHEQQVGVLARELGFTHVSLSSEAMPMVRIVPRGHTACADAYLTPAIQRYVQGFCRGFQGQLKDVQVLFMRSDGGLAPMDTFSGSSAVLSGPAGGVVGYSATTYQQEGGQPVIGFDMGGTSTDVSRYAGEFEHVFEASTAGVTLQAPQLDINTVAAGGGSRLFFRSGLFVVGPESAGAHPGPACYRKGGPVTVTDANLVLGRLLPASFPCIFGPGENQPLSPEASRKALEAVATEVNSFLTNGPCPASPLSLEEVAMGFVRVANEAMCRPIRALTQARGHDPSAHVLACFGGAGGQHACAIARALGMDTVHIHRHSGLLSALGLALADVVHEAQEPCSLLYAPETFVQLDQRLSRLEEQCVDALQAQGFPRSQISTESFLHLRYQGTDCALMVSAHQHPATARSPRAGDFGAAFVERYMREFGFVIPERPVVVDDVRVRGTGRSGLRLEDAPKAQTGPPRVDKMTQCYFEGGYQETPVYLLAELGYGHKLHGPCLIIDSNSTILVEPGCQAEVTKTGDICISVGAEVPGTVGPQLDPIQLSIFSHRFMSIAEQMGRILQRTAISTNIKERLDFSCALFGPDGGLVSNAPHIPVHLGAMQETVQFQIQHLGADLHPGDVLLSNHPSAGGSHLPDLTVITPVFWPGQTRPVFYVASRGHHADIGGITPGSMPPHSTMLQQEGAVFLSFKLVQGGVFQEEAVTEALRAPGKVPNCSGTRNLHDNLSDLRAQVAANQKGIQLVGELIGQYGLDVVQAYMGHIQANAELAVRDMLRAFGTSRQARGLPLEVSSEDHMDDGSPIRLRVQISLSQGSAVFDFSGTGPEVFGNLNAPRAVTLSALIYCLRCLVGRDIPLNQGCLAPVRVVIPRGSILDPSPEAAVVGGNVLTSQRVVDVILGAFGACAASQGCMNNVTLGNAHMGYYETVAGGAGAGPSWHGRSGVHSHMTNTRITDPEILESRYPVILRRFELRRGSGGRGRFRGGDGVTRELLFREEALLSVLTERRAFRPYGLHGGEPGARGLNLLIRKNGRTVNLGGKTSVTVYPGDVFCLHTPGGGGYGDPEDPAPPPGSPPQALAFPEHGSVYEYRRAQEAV
UniProt Q9H4B0: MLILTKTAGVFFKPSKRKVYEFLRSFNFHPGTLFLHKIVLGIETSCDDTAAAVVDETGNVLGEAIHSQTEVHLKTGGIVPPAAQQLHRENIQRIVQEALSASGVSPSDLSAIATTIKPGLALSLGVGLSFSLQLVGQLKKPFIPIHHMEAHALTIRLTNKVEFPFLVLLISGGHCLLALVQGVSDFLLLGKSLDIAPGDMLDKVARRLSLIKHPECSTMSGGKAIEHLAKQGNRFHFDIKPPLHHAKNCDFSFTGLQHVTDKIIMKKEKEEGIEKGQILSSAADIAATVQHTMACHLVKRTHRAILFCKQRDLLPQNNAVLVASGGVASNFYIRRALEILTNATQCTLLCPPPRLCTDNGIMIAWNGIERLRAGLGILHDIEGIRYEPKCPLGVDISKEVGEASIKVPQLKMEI
UniProt Q13153, whole entry, looked up: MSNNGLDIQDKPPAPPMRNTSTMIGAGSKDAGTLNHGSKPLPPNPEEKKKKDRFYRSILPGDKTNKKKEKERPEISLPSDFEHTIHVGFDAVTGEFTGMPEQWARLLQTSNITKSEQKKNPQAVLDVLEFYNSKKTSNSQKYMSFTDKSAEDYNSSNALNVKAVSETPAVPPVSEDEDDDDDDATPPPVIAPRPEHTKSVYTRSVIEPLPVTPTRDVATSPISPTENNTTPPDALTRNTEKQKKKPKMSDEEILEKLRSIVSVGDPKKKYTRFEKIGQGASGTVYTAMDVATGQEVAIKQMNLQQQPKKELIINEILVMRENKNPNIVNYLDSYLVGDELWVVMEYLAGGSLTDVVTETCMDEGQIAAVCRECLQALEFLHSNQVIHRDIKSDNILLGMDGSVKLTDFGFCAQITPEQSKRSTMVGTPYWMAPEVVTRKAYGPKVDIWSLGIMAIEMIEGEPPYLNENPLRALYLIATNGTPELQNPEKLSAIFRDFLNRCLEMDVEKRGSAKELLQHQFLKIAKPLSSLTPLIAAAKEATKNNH
UniProt Q9BY11: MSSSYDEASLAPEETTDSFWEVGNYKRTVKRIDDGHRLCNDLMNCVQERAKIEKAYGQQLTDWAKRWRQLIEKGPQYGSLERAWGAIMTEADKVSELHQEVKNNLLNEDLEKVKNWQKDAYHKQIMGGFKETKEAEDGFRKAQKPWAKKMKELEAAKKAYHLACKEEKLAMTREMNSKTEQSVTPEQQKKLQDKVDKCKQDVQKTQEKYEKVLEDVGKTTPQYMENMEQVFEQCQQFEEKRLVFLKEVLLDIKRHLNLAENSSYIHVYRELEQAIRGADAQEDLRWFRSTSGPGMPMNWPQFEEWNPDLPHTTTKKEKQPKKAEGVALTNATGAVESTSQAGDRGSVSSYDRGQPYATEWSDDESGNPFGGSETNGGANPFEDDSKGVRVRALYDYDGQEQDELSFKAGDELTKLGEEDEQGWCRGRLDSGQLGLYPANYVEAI
UniProt P51003: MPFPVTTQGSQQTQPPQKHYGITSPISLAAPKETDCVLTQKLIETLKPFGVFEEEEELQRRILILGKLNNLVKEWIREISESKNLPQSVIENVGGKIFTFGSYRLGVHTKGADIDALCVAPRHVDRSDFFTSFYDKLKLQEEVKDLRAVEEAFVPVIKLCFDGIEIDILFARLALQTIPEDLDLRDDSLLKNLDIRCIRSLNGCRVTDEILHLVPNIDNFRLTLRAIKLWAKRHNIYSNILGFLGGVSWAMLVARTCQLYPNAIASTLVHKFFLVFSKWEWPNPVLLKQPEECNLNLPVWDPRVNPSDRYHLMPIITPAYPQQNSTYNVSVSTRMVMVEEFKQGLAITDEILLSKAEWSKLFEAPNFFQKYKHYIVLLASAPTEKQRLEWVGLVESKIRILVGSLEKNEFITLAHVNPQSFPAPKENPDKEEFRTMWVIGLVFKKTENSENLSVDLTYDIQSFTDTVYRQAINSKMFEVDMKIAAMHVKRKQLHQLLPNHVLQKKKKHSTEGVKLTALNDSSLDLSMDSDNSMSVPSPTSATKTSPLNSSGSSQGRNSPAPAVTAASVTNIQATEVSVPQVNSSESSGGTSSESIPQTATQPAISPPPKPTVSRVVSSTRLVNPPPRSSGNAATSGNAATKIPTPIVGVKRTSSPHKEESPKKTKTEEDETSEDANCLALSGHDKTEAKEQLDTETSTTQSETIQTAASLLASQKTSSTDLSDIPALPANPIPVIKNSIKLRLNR
UniProt O60829: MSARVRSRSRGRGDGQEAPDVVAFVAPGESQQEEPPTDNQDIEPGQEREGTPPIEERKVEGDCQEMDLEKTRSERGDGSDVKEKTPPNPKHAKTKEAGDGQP
UniProt Q99497, whole entry, looked up: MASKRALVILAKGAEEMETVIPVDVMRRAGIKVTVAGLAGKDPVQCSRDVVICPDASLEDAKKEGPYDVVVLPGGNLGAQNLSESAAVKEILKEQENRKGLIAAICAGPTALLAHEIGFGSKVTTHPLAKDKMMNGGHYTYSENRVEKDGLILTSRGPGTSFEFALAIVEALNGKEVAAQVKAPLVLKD
UniProt O60890: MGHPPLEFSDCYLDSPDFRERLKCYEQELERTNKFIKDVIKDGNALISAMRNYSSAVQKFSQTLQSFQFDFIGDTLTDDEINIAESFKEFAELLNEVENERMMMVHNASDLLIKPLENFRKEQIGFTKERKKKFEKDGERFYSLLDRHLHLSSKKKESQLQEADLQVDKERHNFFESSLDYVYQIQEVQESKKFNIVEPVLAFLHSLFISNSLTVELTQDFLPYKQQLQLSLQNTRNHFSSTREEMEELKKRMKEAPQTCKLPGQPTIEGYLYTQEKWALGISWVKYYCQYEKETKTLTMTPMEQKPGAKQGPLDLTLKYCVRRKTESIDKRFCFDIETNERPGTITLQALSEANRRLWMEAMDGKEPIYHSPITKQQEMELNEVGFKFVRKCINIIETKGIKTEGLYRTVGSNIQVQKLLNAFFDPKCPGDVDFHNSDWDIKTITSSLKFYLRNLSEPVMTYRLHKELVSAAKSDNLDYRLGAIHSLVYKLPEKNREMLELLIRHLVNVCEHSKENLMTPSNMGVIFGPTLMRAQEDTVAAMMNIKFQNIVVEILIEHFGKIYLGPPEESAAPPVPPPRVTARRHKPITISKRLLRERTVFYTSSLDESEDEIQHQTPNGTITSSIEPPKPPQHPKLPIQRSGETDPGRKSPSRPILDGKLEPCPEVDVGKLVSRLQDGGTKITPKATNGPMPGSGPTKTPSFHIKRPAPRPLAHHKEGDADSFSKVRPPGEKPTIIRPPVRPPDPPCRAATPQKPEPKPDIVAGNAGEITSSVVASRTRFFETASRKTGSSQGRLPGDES
UniProt Q5JRK9: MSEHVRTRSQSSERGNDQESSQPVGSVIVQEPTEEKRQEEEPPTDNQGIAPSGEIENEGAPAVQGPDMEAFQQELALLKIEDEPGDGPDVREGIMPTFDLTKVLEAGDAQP
UniProt Q86WC4: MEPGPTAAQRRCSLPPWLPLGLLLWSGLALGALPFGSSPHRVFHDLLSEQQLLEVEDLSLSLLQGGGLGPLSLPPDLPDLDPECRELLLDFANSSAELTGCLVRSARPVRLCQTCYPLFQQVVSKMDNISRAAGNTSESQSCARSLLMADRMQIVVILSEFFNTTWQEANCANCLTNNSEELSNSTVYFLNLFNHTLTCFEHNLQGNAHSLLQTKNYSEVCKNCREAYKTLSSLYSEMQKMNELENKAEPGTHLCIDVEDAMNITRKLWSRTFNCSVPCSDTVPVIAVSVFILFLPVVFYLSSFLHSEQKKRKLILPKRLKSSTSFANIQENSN
UniProt O15381: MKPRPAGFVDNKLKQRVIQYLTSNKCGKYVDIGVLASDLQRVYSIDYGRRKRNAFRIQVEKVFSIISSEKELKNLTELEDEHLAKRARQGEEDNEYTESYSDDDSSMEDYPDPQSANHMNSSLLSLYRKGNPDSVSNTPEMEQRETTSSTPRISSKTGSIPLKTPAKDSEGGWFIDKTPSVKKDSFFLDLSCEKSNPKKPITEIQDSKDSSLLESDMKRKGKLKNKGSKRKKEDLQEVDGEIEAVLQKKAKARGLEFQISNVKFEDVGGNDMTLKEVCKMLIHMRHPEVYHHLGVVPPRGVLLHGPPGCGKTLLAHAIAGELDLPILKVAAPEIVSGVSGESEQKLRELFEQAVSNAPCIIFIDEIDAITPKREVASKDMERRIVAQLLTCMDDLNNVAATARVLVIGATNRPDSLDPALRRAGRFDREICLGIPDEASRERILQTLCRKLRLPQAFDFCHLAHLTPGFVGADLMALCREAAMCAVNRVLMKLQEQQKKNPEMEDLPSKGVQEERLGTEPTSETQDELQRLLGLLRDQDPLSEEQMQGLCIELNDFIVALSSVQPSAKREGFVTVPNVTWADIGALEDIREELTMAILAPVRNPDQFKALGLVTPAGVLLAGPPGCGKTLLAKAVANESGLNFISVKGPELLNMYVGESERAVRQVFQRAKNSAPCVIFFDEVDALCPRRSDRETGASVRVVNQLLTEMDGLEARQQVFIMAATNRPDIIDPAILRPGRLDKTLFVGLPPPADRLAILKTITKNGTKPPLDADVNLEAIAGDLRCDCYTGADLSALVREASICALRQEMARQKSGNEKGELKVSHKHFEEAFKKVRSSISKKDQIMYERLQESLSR

Tests used:
Test in all cases: log2 fold change, soluble protein after heating vs DMSO (PISA); higher = thermal stabilisation; K562 lysate, 10 uM; active = over 0.2 and 3.5 SD of the protein, either way, in both replicates (recomputed)
[1] = compound: CS(=O)(=O)CCNCc1ccc(-c2ccc3ncnc(Nc4ccc(OCc5cccc(F)c5)c(Cl)c4)c3c2)o1 [lapatinib]
Method in brief: (§1)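 Soluble protein was defined as the supernatant remaining after 21,000xg for 90 min, following pooling of heated aliquots and adjustment to 0.5% NP-40 at 4°C. Before that, crude K562 extract at 1 mg/mL protein in PBS pH 7.4 with 1 mM MgCl2 was treated with 10 μM compound for 30 min and heated for 3 min across 48°C-58°C. Quantification used TMTpro 16plex LC-MS/MS with channel sums equalised, and values are log-two fold changes in thermal stability relative to solvent controls from duplicates.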

[2] = compound: CS(=O)(=O)N1CCN(Cc2cc3nc(-c4cccc5[nH]ncc45)nc(N4CCOCC4)c3s2)CC1 [pictilisib]
Method in brief: as §1

[3] = compound: C[C@@H](Oc1cc(-c2cnn(C3CCNCC3)c2)cnc1N)c1c(Cl)ccc(F)c1Cl [crizotinib]
Method in brief: as §1

[4] = compound: C[C@H](C1=CC=C(C=C1)C(=O)NC2=C3C=CNC3=NC=C2)N
Method in brief: as §1

[5] = compound: C[C@H](Nc1ncnc2nc[nH]c12)c1cc2cccc(Cl)c2c(=O)n1-c1ccccc1 [duvelisib]
Method in brief: as §1

[6] = compound: Cc1cc(Nc2cc(CN3CCOCC3)c3nc(C)c(Cc4ccc(Cl)cc4F)n3n2)n[nH]1 [gandotinib]
Method in brief: as §1

[7] = compound: Cc1cc(Nc2cc(N3CCN(C)CC3)nc(Sc3ccc(NC(=O)C4CC4)cc3)n2)n[nH]1 [tozasertib]
Method in brief: as §1

[8] = compound: Cc1ccc(-n2nc(C(C)(C)C)cc2NC(=O)Nc2ccc(OCCN3CCOCC3)c3ccccc23)cc1 [doramapimod]
Method in brief: as §1

[9] = compound: Cc1ccc(NC(=O)c2ccc(CN3CC[C@H](N(C)C)C3)c(C(F)(F)F)c2)cc1Nc1nccc(-c2cncnc2)n1 [bafetinib]
Method in brief: as §1

[10] = compound: Cc1cccc(CC(=O)N2CCc3c2ccc(-c2cn(C)c4ncnc(N)c24)c3F)n1
Method in brief: as §1

[11] = compound: Cc1nc(Nc2ncc(C(=O)Nc3c(C)cccc3Cl)s2)cc(N2CCN(CCO)CC2)n1 [dasatinib]
Method in brief: as §1

[12] = compound: Cn1cc(-c2ccc3c(c2)CCN3C(=O)Cc2cccc(C(F)(F)F)c2)c2c(N)ncnc21
Method in brief: as §1

[13] = compound: Cn1cc(CNCC2CCN(c3ncc(C(=O)NO)cn3)CC2)c2ccccc21 [quisinostat]
Method in brief: as §1

[14] = compound: NC(=O)Nc1cc(-c2cccc(F)c2)sc1C(=O)N[C@H]1CCCNC1
Method in brief: as §1

[15] = compound: NC(=O)c1cnc(N[C@@H]2CCCC[C@@H]2N)nc1Nc1cccc(-n2nccn2)c1
Method in brief: as §1

[16] = compound: NC1(c2ccc(-c3nc4ccn5c(=O)[nH]nc5c4cc3-c3ccccc3)cc2)CCC1
Method in brief: as §1

[17] = compound: Cc1cn(-c2cc(NC(=O)c3ccc(C)c(Nc4nccc(-c5cccnc5)n4)c3)cc(C(F)(F)F)c2)cn1 [nilotinib]
Method in brief: as §1

[18] = compound: Cc1nc(Nc2n[nH]c3c2CN(C(=O)N[C@H](CN(C)C)c2ccccc2)C3(C)C)c2sccc2n1
Method in brief: as §1

[19] = compound: Cc1ncc(-c2ccnc(Nc3ccc(S(C)(=O)=O)cc3)n2)n1C(C)C
Method in brief: as §1

[20] = compound: Cn1cncc1[C@@](N)(c1ccc(Cl)cc1)c1ccc2c(c1)c(-c1cccc(Cl)c1)cc(=O)n2C [tipifarnib]
Method in brief: as §1

Target	log2 fold change [1]	log2 fold change [2]	log2 fold change [3]	log2 fold change [4]	log2 fold change [5]	log2 fold change [6]	log2 fold change [7]	log2 fold change [8]	log2 fold change [9]	log2 fold change [10]	log2 fold change [11]	log2 fold change [12]	log2 fold change [13]	log2 fold change [14]	log2 fold change [15]	log2 fold change [16]	log2 fold change [17]	log2 fold change [18]	log2 fold change [19]	log2 fold change [20]
PAAT (UniProt Q9H8K7)	inactive: 0.009	inactive: -0.017	inactive: -0.213	inactive: -0.016	inactive: -0.029	inactive: 0.033	inactive: 0.032	inactive: -0.035	inactive: 0	inactive: -0.073	inactive: 0.007	inactive: 0.027	inactive: -0.165	inactive: 0.012	inactive: -0.022	inactive: 0.065	–	–	–	–
OPLAH (UniProt O14841)	inactive: -0.028	inactive: 0.028	inactive: 0.01	inactive: -0.005	inactive: -0.111	inactive: -0.006	inactive: -0.059	inactive: 0.04	inactive: -0.035	inactive: 0.028	inactive: 0.027	inactive: 0.063	inactive: 0.028	inactive: 0.014	inactive: -0.004	inactive: 0.014	inactive: 0.016	inactive: -0.023	inactive: 0.002	inactive: 0.014
OSGEPL1 (UniProt Q9H4B0)	inactive: -0.025	inactive: -0.015	inactive: -0.079	–	–	–	inactive: 0.063	inactive: 0.037	inactive: -0.076	–	–	–	inactive: -0.285	inactive: 0.098	inactive: 0.371	–	–	–	–	–
PAK1 (UniProt Q13153)	inactive: -0.037	inactive: -0.034	inactive: 0.019	inactive: -0.117	inactive: 0.044	inactive: -0.011	inactive: -0.02	inactive: -0.035	inactive: 0.002	inactive: -0.005	inactive: 0.046	inactive: -0.024	inactive: 0.044	inactive: -0.028	inactive: -0.025	inactive: -0.012	inactive: 0.028	inactive: 0.02	inactive: 0.012	inactive: -0.053
PACSIN1 (UniProt Q9BY11)	inactive: 0.037	inactive: 0.029	–	inactive: 0.045	inactive: 0.183	inactive: -0.058	inactive: -0.013	–	inactive: -0.025	inactive: 0.032	inactive: -0.06	inactive: -0.122	–	–	inactive: 0.052	inactive: -0.066	inactive: -0.128	inactive: -0.027	inactive: -0.034	inactive: -0.194
PABPC1 (UniProt H0YAR2)	inactive: -0.03	inactive: 0.106	inactive: -0.009	inactive: -0.225	–	inactive: 0.159	–	inactive: 0.04	inactive: -0.066	inactive: -0.114	–	–	inactive: 0.05	inactive: 0.09	inactive: 0.064	inactive: -0.001	inactive: -0.034	inactive: 0.031	inactive: 0.037	inactive: 0.002
PAPOLA (UniProt P51003)	inactive: -0.014	inactive: -0.032	inactive: 0.018	inactive: -0.027	inactive: -0.008	inactive: -0.044	inactive: 0.004	inactive: 0.022	inactive: -0.021	inactive: -0.006	inactive: -0.009	inactive: 0.019	inactive: 0.023	inactive: -0.018	inactive: 0.003	inactive: -0.025	inactive: -0.019	inactive: -0.011	inactive: -0.043	inactive: 0.003
PAGE4 (UniProt O60829)	inactive: -0.012	inactive: -0.05	inactive: -0.028	active: 0.344	inactive: 0.091	inactive: -0.102	inactive: -0.023	inactive: 0.11	inactive: -0.004	inactive: -0.134	inactive: -0.086	inactive: -0.035	inactive: -0.097	inactive: 0.036	inactive: 0.04	inactive: 0.004	–	–	–	–
PARK7 (UniProt Q99497)	inactive: -0.03	inactive: -0.031	inactive: -0.002	inactive: 0.025	inactive: 0.013	inactive: -0.009	inactive: 0.005	inactive: -0.025	inactive: 0.078	inactive: -0.065	inactive: -0.007	inactive: -0.008	inactive: 0.009	inactive: -0.016	inactive: -0.008	inactive: 0.005	inactive: 0.043	inactive: -0.004	inactive: 0.051	inactive: 0.018
OPHN1 (UniProt O60890)	inactive: -0.008	inactive: -0.046	–	inactive: 0.019	inactive: -0.416	inactive: -0.058	inactive: 0.053	–	inactive: -0.048	inactive: -0.009	inactive: 0.081	inactive: -0.188	–	–	inactive: 0.205	–	–	–	–	–
PAGE2B (UniProt Q5JRK9)	inactive: 0.216	–	inactive: 0.051	inactive: 0.267	inactive: 0.011	inactive: -0.115	inactive: -0.017	inactive: 0.025	–	inactive: -0.097	inactive: 0.032	inactive: -0.016	inactive: 0.001	inactive: 0.041	inactive: -0.018	inactive: 0.164	inactive: 0.036	inactive: -0.007	inactive: 0.062	inactive: 0.026
OSTM1 (UniProt Q86WC4)	inactive: -0.016	inactive: -0.083	inactive: 0.056	inactive: 0.015	inactive: 0.007	inactive: 0.082	inactive: 0.033	inactive: 0.003	inactive: -0.01	inactive: 0.041	inactive: 0.055	inactive: 0.025	inactive: 0.083	inactive: -0.017	inactive: -0.002	inactive: -0.005	inactive: -0.029	inactive: 0.001	inactive: -0.027	inactive: 0.033
NVL (UniProt O15381)	inactive: -0.025	inactive: -0.091	inactive: -0.047	inactive: -0.007	inactive: 0.086	inactive: -0.105	–	inactive: 0.056	inactive: 0.018	inactive: 0.11	inactive: -0.047	inactive: 0.007	inactive: -0.099	inactive: 0.025	inactive: -0.033	inactive: 0.031	inactive: -0.078	inactive: -0.044	inactive: 0.043	inactive: 0.034

Reprinted at random: 2 entries already listed
Target	log2 fold change [1]	log2 fold change [2]	log2 fold change [3]	log2 fold change [4]	log2 fold change [5]	log2 fold change [6]	log2 fold change [7]	log2 fold change [8]	log2 fold change [9]	log2 fold change [10]	log2 fold change [11]	log2 fold change [12]	log2 fold change [13]	log2 fold change [14]	log2 fold change [15]	log2 fold change [16]	log2 fold change [17]	log2 fold change [18]	log2 fold change [19]	log2 fold change [20]
NVL (UniProt O15381)	inactive: -0.025	inactive: -0.091	inactive: -0.047	inactive: -0.007	inactive: 0.086	inactive: -0.105	–	inactive: 0.056	inactive: 0.018	inactive: 0.11	inactive: -0.047	inactive: 0.007	inactive: -0.099	inactive: 0.025	inactive: -0.033	inactive: 0.031	inactive: -0.078	inactive: -0.044	inactive: 0.043	inactive: 0.034
PAK1 (UniProt Q13153)	inactive: -0.037	inactive: -0.034	inactive: 0.019	inactive: -0.117	inactive: 0.044	inactive: -0.011	inactive: -0.02	inactive: -0.035	inactive: 0.002	inactive: -0.005	inactive: 0.046	inactive: -0.024	inactive: 0.044	inactive: -0.028	inactive: -0.025	inactive: -0.012	inactive: 0.028	inactive: 0.02	inactive: 0.012	inactive: -0.053
